Test results published in patent US20170189504A1, “NOVEL PEPTIDES AND COMBINATION OF PEPTIDES FOR USE IN IMMUNOTHERAPY AGAINST VARIOUS CANCERS” (immatics biotechnologies GmbH, priority 2015, published 2017).

Columns and labels:
[1] = test system: source genes (mRNA); assay: Gene and exon expression of source genes, TCGA tumor samples compared with normal tissue samples (Lonsdale, 2013) (Table 17); design: species or system human; conditions: for Target coverage: over-expression category of source gene, DLBC: Lymphoid neoplasm diffuse large B-cell lymphoma (N = 48)
[2] = test system: source genes (mRNA); assay: Expression profiling of source genes by in-house RNASeq of tumor and normal tissues (Table 18, FIG. 2); design: species or system human; key: very highly over-expressed in tumors compared to a panel of normal tissues (+++); highly over-expressed in tumors compared to a panel of normal tissues (++); over-expressed in tumors compared to a panel of normal tissues (+); conditions: source gene of peptide; for Expression score GB: glioblastoma (N = 24) vs panel of normal tissues; for Expression score NHL: non-Hodgkin lymphoma (N = 10) vs panel of normal tissues; for Expression score OC: ovarian cancer (N = 12) vs panel of normal tissues; for Expression score SCLC: small cell lung cancer (N = 10) vs panel of normal tissues
[3] = test system: HLA-A*02; assay: Identification and relative LC-MS quantitation of HLA-A*02-presented tumor-associated peptides on tissue samples (presentation profiles, Tables 13A, 13B, 15, FIG. 1); design: species or system human; key to Presentation score NHL / Presentation score CLL / Presentation score BRCA / Presentation score AML / Presentation score GB / Presentation score NSCLC / Presentation score GBC_CCC / Presentation score UEC / Presentation score MEL / Presentation score OSCAR / Presentation score GC / Presentation score UBC / Presentation score OC / Presentation score RCC / Presentation score CRC / Presentation score PCA / Presentation score HCC / Presentation score PC / Presentation score SCLC: specifically presented on tumors (++++); very highly over-presented on tumors compared to a panel of normal tissues (+++); highly over-presented on tumors compared to a panel of normal tissues (++); over-presented on tumors compared to a panel of normal tissues (+); conditions: for Presentation score GB: glioblastoma (N = 41) vs panel of normal tissues (N = 262); for Presentation score NHL: non-Hodgkin lymphoma (N = 18) vs panel of normal tissues (N = 262); for Presentation score OC: ovarian cancer (N = 20) vs panel of normal tissues (N = 262); for Peptide Presentation on cancer entities: HLA-A*02-binding tumor-associated peptides
[4] = cutoff more than 2-fold above highest 75% percentile of normal tissue samples
[5] = Table 13A, cancer entities on which the peptide was found presented
[6] = Table 13B, presentation on additional cancer entities

21: peptide found in MAD2L1 (gene looked up) (AIQDEIRSV; listed as Homo sapiens) [compound 21]
Target coverage: over-expression category of source gene, LAML ([1]; Acute Myeloid Leukemia (N = 173), cutoff more than 2-fold above highest 75% percentile of normal tissue samples): A (>=50% of tumors above the cutoff)
Target coverage: over-expression category of source gene, BLCA ([1]; Bladder urothelial carcinoma (N = 408), cutoff more than 2-fold above highest 75% percentile of normal tissue samples): A (>=50% of tumors above the cutoff)
Target coverage: over-expression category of source gene, BRCA ([1]; Breast cancer (N = 1104), cutoff more than 2-fold above highest 75% percentile of high and medium risk normal tissue samples): A (>=50% of tumors above the cutoff)
Target coverage: over-expression category of source gene, CHOL ([1]; Cholangiocarcinoma (N = 36), cutoff more than 2-fold above highest 75% percentile of normal tissue samples): C (>=5% of tumors above the cutoff, but <20%)
Target coverage: over-expression category of source gene, READ ([1]; Colon and rectal adenocarcinoma (N = 167), cutoff more than 2-fold above highest 75% percentile of normal tissue samples): A (>=50% of tumors above the cutoff)
Target coverage: over-expression category of source gene, COAD ([1]; Colon and rectal adenocarcinoma (N = 462), cutoff more than 2-fold above highest 75% percentile of normal tissue samples): A (>=50% of tumors above the cutoff)
Target coverage: over-expression category of source gene, ESCA ([1]; Esophageal cancer (N = 185), cutoff more than 2-fold above highest 75% percentile of normal tissue samples): A (>=50% of tumors above the cutoff)
Target coverage: over-expression category of source gene, GBM ([1]; Glioblastoma multiforme (N = 169), cutoff more than 2-fold above highest 75% percentile of normal tissue samples): A (>=50% of tumors above the cutoff)
Target coverage: over-expression category of source gene, LIHC ([1]; Liver hepatocellular carcinoma (N = 374), cutoff more than 2-fold above highest 75% percentile of normal tissue samples): C (>=5% of tumors above the cutoff, but <20%)
Target coverage: over-expression category of source gene, LGG ([1]; Lower grade glioma (N = 534), cutoff more than 2-fold above highest 75% percentile of normal tissue samples): C (>=5% of tumors above the cutoff, but <20%)
Target coverage: over-expression category of source gene, LUAD ([1]; Lung adenocarcinoma (N = 517), cutoff more than 2-fold above highest 75% percentile of normal tissue samples): B (>= 20% of tumors above the cutoff, but <50%)
Target coverage: over-expression category of source gene, LUSC ([1]; Lung squamous cell carcinoma (N = 503), cutoff more than 2-fold above highest 75% percentile of normal tissue samples): A (>=50% of tumors above the cutoff)
Target coverage: over-expression category of source gene, DLBC [1, 4]: A (>=50% of tumors above the cutoff)
Target coverage: over-expression category of source gene, OV ([1]; Ovarian serous cystadenocarcinoma (N = 309), cutoff more than 2-fold above highest 75% percentile of normal tissue samples): A (>=50% of tumors above the cutoff)
Target coverage: over-expression category of source gene, PAAD ([1]; Pancreatic ductal adenocarcinoma (N = 179), cutoff more than 2-fold above highest 75% percentile of normal tissue samples): C (>=5% of tumors above the cutoff, but <20%)
Target coverage: over-expression category of source gene, SKCM ([1]; Skin cutaneous melanoma (N = 473), cutoff more than 2-fold above highest 75% percentile of normal tissue samples): A (>=50% of tumors above the cutoff)
Target coverage: over-expression category of source gene, STAD ([1]; Stomach adenocarcinoma (N = 415), cutoff more than 2-fold above highest 75% percentile of normal tissue samples): A (>=50% of tumors above the cutoff)
Target coverage: over-expression category of source gene, UCEC ([1]; Uterine corpus endometrial carcinoma (N = 546), cutoff more than 2-fold above highest 75% percentile of normal tissue samples): B (>= 20% of tumors above the cutoff, but <50%)
Expression score BRCA ([2]; BRCA tumors vs panel of normal tissues): +
Expression score AML ([2]; acute myeloid leukemia (N = 11) vs panel of normal tissues): +
Expression score CRC ([2]; colorectal cancer (N = 20) vs panel of normal tissues): +
Expression score OSCAR ([2]; esophageal cancer incl. gastric-esophageal junction (N = 11) vs panel of normal tissues): +
Expression score GBC_CCC ([2]; gallbladder adenocarcinoma and cholangiocarcinoma (N = 3) vs panel of normal tissues): +
Expression score GC ([2]; gastric cancer (N = 11) vs panel of normal tissues): +
Expression score GB [2]: +
Expression score NHL [2]: +++
Expression score NSCLC ([2]; non-small cell lung cancer (N = 11) vs panel of normal tissues): +
Expression score OC [2]: +
Expression score PC ([2]; pancreatic cancer (N = 26) vs panel of normal tissues): +
Expression score SCLC [2]: ++
Expression score UBC ([2]; urinary bladder cancer (N = 10) vs panel of normal tissues): +
Expression score UEC ([2]; uterine cancer (N = 10) vs panel of normal tissues): +
Presentation score BRCA ([3]; HLA-A*02 peptides, breast cancer (N = 17) vs panel of normal tissues (N = 262)): ++++
Presentation score OSCAR ([3]; HLA-A*02 peptides, esophageal cancer, including cancer of the gastric-esophageal junction (N = 17) vs panel of normal tissues (N = 262)): ++++
Presentation score GB ([3]; HLA-A*02 peptides): ++++
Presentation score NHL ([3]; HLA-A*02 peptides): ++++
Presentation score NSCLC ([3]; HLA-A*02 peptides, non-small cell lung cancer (N = 90) vs panel of normal tissues (N = 262)): ++++
Presentation score OC ([3]; HLA-A*02 peptides): ++++
Peptide Presentation on cancer entities [3, 5]: GB, NSCLC, OSCAR, OC, BRCA, NHL
Peptide Presentation on cancer entities [3, 6]: MEL, CRC, AML

40: peptide found in GZMK (gene looked up) (VLIDPQWVLTA; listed as Homo sapiens) [compound 40]
Target coverage: over-expression category of source gene, KIRC ([1]; Clear cell kidney carcinoma (N = 534), cutoff more than 2-fold above highest 75% percentile of normal tissue samples): C (>=5% of tumors above the cutoff, but <20%)
Target coverage: over-expression category of source gene, DLBC [1, 4]: A (>=50% of tumors above the cutoff)
Expression score NHL [2]: +
Expression score OC [2]: +
Expression score RCC ([2]; renal cell carcinoma (N = 10) vs panel of normal tissues): +
Presentation score NHL ([3]; HLA-A*02 peptides): ++++
Presentation score OC ([3]; HLA-A*02 peptides): ++++
Peptide Presentation on cancer entities [3, 5]: OC, NHL
Peptide Presentation on cancer entities [3, 6]: CRC

148: peptide found in SRR (gene looked up) (MLAGIAITV; listed as Homo sapiens) [compound 148]
Over-expression category of source gene (target coverage), BLCA ([1]; BLCA = Bladder urothelial carcinoma (N = 408), same cutoff): B (>= 20% of tumors above the cutoff, but <50%)
Over-expression category of source gene (target coverage), BRCA ([1]; BRCA = Breast cancer (N = 1104), tumors more than 2-fold above highest 75% percentile of normal tissues): A (>=50% of tumors above the cutoff)
Over-expression category of source gene (target coverage), CHOL ([1]; CHOL = Cholangiocarcinoma (N = 36), same cutoff): B (>= 20% of tumors above the cutoff, but <50%)
Over-expression category of source gene (target coverage), COAD ([1]; COAD = Colon and rectal adenocarcinoma (N = 462), same cutoff): B (>= 20% of tumors above the cutoff, but <50%)
Over-expression category of source gene (target coverage), DLBC ([1]; DLBC = Lymphoid neoplasm diffuse large B-cell lymphoma (N = 48), same cutoff): A (>=50% of tumors above the cutoff)
Over-expression category of source gene (target coverage), ESCA ([1]; ESCA = Esophageal cancer (N = 185), same cutoff): B (>= 20% of tumors above the cutoff, but <50%)
Over-expression category of source gene (target coverage), GBM ([1]; GBM = Glioblastoma multiforme (N = 169), same cutoff): A (>=50% of tumors above the cutoff)
Over-expression category of source gene (target coverage), KICH ([1]; KICH = Kidney chromophobe (N = 66), same cutoff): C (>=5% of tumors above the cutoff, but <20%)
Over-expression category of source gene (target coverage), KIRC ([1]; KIRC = Clear cell kidney carcinoma (N = 534), same cutoff): B (>= 20% of tumors above the cutoff, but <50%)
Over-expression category of source gene (target coverage), KIRP ([1]; KIRP = Papillary kidney carcinoma (N = 291), same cutoff): A (>=50% of tumors above the cutoff)
Over-expression category of source gene (target coverage), LAML ([1]; LAML = Acute Myeloid Leukemia (N = 173), same cutoff): A (>=50% of tumors above the cutoff)
Over-expression category of source gene (target coverage), LGG ([1]; LGG = Lower grade glioma (N = 534), same cutoff): A (>=50% of tumors above the cutoff)
Over-expression category of source gene (target coverage), LIHC ([1]; LIHC = Liver hepatocellular carcinoma (N = 374), same cutoff): C (>=5% of tumors above the cutoff, but <20%)
Over-expression category of source gene (target coverage), LUAD ([1]; LUAD = Lung adenocarcinoma (N = 517), same cutoff): B (>= 20% of tumors above the cutoff, but <50%)
Over-expression category of source gene (target coverage), LUSC ([1]; LUSC = Lung squamous cell carcinoma (N = 503), same cutoff): B (>= 20% of tumors above the cutoff, but <50%)
Over-expression category of source gene (target coverage), OV ([1]; OV = Ovarian serous cystadenocarcinoma (N = 309), same cutoff): A (>=50% of tumors above the cutoff)
Over-expression category of source gene (target coverage), PAAD ([1]; PAAD = Pancreatic ductal adenocarcinoma (N = 179), same cutoff): B (>= 20% of tumors above the cutoff, but <50%)
Over-expression category of source gene (target coverage), PRAD ([1]; PRAD = Prostate adenocarcinoma (N = 498), same cutoff): A (>=50% of tumors above the cutoff)
Over-expression category of source gene (target coverage), READ ([1]; READ = Colon and rectal adenocarcinoma (N = 167), same cutoff): B (>= 20% of tumors above the cutoff, but <50%)
Over-expression category of source gene (target coverage), SKCM ([1]; SKCM = Skin cutaneous melanoma (N = 473), same cutoff): A (>=50% of tumors above the cutoff)
Over-expression category of source gene (target coverage), STAD ([1]; STAD = Stomach adenocarcinoma (N = 415), same cutoff): B (>= 20% of tumors above the cutoff, but <50%)
Over-expression category of source gene (target coverage), UCEC ([1]; UCEC = Uterine corpus endometrial carcinoma (N = 546), same cutoff): A (>=50% of tumors above the cutoff)
Expression score GB [2]: ++
Expression score SCLC [2]: +
Presentation score GB ([3]; HLA-A*02 peptides): +++
Peptide Presentation on cancer entities [3, 5]: GB, GBC_CCC
Peptide Presentation on cancer entities [3, 6]: GBC_CCC, NHL

For some of these results: Expression values are those of the mRNA of the gene that encodes the peptide; a gene is named only where it was looked up.
